# Assay results from patent US20240115726A1, “HYDRAZONE-BASED SAPONIN DERIVATIVES” (priority 2020, published 2024).
# What was measured:
# [1] = tested on: A431 cells; assay: Toxicity of saponin alone, cell viability (MTS); type: cell-based
# [2] = tested on: HeLa cells; assay: Toxicity of saponin alone, cell viability (MTS); type: cell-based
# Description: Next, toxicity was determined. […] SO1861-EMCH (blocked): the maleimide functional group is conjugated with mercapto-ethanol.
compound,measurement,setting,value
CC(=O)OC1C(C)OC(OC2C(C)OC(OC(=O)[C@]34CCC(C)(C)CC3C3=CCC5[C@@]6(C)CC[C@H](OC7OC(C(=O)O)C(O)C(OC8OCC(O)C(O)C8O)C7OC7OC(CO)C(O)C(O)C7O)CC6[C@@](C)(/C=N/NC(=O)CCOCCOCCOCCOCCN6N=NC7c8ccccc8CN(C(=O)CCC(=O)ON8C(=O)CCC8=O)c8ccccc8C76)C[C@@]5(C)[C@]3(C)C[C@H]4O)C(OC3OC(C)C(OC4OCC(O)C(OC5OC(CO)C(O)C(O)C5O)C4O)C(O)C3O)C2O)C(O)C1OC1OCC(O)C(O)C1O (some centres unmarked),Ratio: IC50 toxicity/IC50 activity,[1],>10
same,Ratio: IC50 toxicity/IC50 activity,[2],>25
